Results on 20 compounds are retold here after PubChem BioAssay AID248 (DTP/NCI, 2004).

SMILES strings stand for the structures. The list does not hold the whole screen: it is rich in T/C values a quarter to a half above the control, in often repeated tests (any T/C) and in doses without a T/C. Further doses and runs are listed elsewhere. T/C is the treated group as % of the vehicle group. Some entries give survivors of the animals treated and no T/C: the source holds a T/C of zero for them, seemingly a mark for toxic or unscored doses. Some survivor counts are full or nearly so, which does not show that the dose was tolerated: the source hardly ever lists a survival T/C far under the control, and the zero likely stands for such cases as well. Survivors were counted at the toxicity check, usually on the fifth day, unless a day is given; later deaths do not show. Schedule codes are those of the source, taken here to give the interval after Q, in days (D) or hours (H), and the number of doses after X. Some structures stand for samples that the source files as different forms (salt, stereo form or complex); doses refer to the form tested. For survival time, this PubChem deposit counts one and a half times the control or more as active, and values a quarter to a half above the control carry no call in these data; other NCI protocols may use other cut-offs.

For this experiment, the system named is L1210 leukemia ip in BDF1 mice, survival T/C. Nature of the experiment: NCI In Vivo Anticancer Drug Screen. Data for tumor model L1210 Leukemia (intraperitoneal) in B6D2F1 (BDF1) mice. The following applies: T/C endpoint: mean survival time, higher T/C = longer survival.
[1] abbreviates: dose: 400.0 mg/kg/injection, schedule: Q01DX001 (ip), vehicle: saline.
Setting [2] is: dose: 200.0 mg/kg/injection, schedule: Q04DX002 (ip), vehicle: Klucel (hydroxypropylcellulose) (HPC).
Setting [3] is: dose: 400.0 mg/kg/injection, schedule: Q04DX002 (ip), vehicle: Klucel (hydroxypropylcellulose) (HPC).
Where [4] appears, read: dose: 100.0 mg/kg/injection, schedule: Q04DX002 (ip), vehicle: saline with Tween-80.
Setting [5] is: dose: 200.0 mg/kg/injection, schedule: Q04DX002 (ip), vehicle: saline with Tween-80.
The mark [6] stands for this setting: dose: 400.0 mg/kg/injection, schedule: Q04DX002 (ip), vehicle: saline with Tween-80.
[7] abbreviates: dose: 400.0 mg/kg/injection, schedule: Q01DX009 (ip), vehicle: saline.

For `CCCCCCCCCCCCCCCC[N+](C)=C(SC)c1ccccc1OC`, the survivor count runs as follows: (dose: 6.0 mg/kg/injection, schedule: Q04DX003 (ip), vehicle: Klucel (hydroxypropylcellulose) (HPC)) 0 of 6; (dose: 12.5 mg/kg/injection, schedule: Q04DX003 (ip), vehicle: Klucel (hydroxypropylcellulose) (HPC)) 0 of 6; (dose: 25.0 mg/kg/injection, schedule: Q04DX003 (ip), vehicle: Klucel (hydroxypropylcellulose) (HPC)) 0 of 6; (dose: 50.0 mg/kg/injection, schedule: Q04DX003 (ip), vehicle: Klucel (hydroxypropylcellulose) (HPC)) 1 of 6; (dose: 100.0 mg/kg/injection, schedule: Q04DX003 (ip), vehicle: Klucel (hydroxypropylcellulose) (HPC)) 0 of 6; (dose: 200.0 mg/kg/injection, schedule: Q04DX003 (ip), vehicle: Klucel (hydroxypropylcellulose) (HPC)) 0 of 6. In addition, the survivor count (dose: 400.0 mg/kg/injection, schedule: Q04DX003 (ip), vehicle: Klucel (hydroxypropylcellulose) (HPC)) was 0 of 6.

Consider `CCCCCCCCCCCCCCSCCSCCSCCCCCCCCCCCCCC`, for which the survivor count is, setting by setting: (dose: 100.0 mg/kg/injection, schedule: Q01DX001 (ip), vehicle: Klucel (hydroxypropylcellulose) (HPC)) 6 of 6; (dose: 200.0 mg/kg/injection, schedule: Q01DX001 (ip), vehicle: Klucel (hydroxypropylcellulose) (HPC)) 6 of 6.

For `CCCCC(=O)N/N=C/c1ccccc1O`, the survivor count runs as follows: (dose: 100.0 mg/kg/injection, schedule: Q01DX009 (ip), vehicle: Klucel (hydroxypropylcellulose) (HPC)) 6 of 6; (dose: 200.0 mg/kg/injection, schedule: Q01DX009 (ip), vehicle: Klucel (hydroxypropylcellulose) (HPC)) 6 of 6; (dose: 400.0 mg/kg/injection, schedule: Q01DX009 (ip), vehicle: Klucel (hydroxypropylcellulose) (HPC)) 6 of 6.

As for `CC(C)(C(=O)O)C(=O)O`, the survivor count under setting [1] is recorded as 1 of 4.

On to `CCCCCCCCCN1CCCC(C)C1` (configuration not stated), for which the survivor count is, setting by setting: (dose: 100.0 mg/kg/injection, schedule: Q04DX002 (ip), vehicle: Klucel (hydroxypropylcellulose) (HPC)) 0 of 3; under setting [2], 0 of 3; under setting [3], 0 of 3.

On to `FC(F)(F)c1nc2nc(Cl)c(Cl)nc2s1`, for which the survivor count is, setting by setting: (dose: 50.0 mg/kg/injection, schedule: Q01DX009 (ip), vehicle: other) 2 of 6; (dose: 100.0 mg/kg/injection, schedule: Q01DX009 (ip), vehicle: other) 1 of 6; (dose: 200.0 mg/kg/injection, schedule: Q01DX009 (ip), vehicle: other) 0 of 6; (dose: 400.0 mg/kg/injection, schedule: Q01DX009 (ip), vehicle: other) 0 of 6.

`Nc1nc(-c2ccccc2)c(CCCOc2ccc([N+](=O)[O-])cc2)c(=O)[nH]1`: the survivor count (dose: 200.0 mg/kg/injection, schedule: Q01DX001 (ip), vehicle: carboxymethylcellulose (CMC)) is on record as 4 of 4.

Take `CC1(C)OC(CF)C2OC(C)(C)OC(CF)C2O1` (configuration not stated): for the setting “dose: 225.0 mg/kg/injection, schedule: Q01DX009 (ip), vehicle: carboxymethylcellulose (CMC)”, the survivor count is listed as 2 of 6.

As for `ClC1(c2ccccc2)C2CCCCC21` (configuration not stated), the survivor count (dose: 300.0 mg/kg/injection, schedule: Q01DX001 (ip), vehicle: saline) is on record as 3 of 6.

For `Cc1ccccc1C[As](C)(=O)O`, the survivor count (dose: 400.0 mg/kg/injection, schedule: Q01DX001 (ip), vehicle: Klucel (hydroxypropylcellulose) (HPC)) is listed as 0 of 6.

With `Oc1ccccc1C=NCCN=Cc1ccccc1O.[Ni]`, for the setting “dose: 200.0 mg/kg/injection, schedule: Q01DX001 (ip), vehicle: other”, the T/C was 133 % of control. For the same compound, the survivor count reads like this: (dose: 300.0 mg/kg/injection, schedule: Q01DX001 (ip), vehicle: other) 4 of 6; (dose: 400.0 mg/kg/injection, schedule: Q01DX001 (ip), vehicle: other) 2 of 4.

As for `COC(=O)N1C(C)=CC=CC=C1C`, the survivor count under setting [2] is listed as 0 of 3 and the survivor count under setting [3] is recorded as 0 of 3.

Turning to `CC(=O)Nc1ccccc1.[Hg]`, the survivor count reads like this: (dose: 6.25 mg/kg/injection, schedule: Q01DX009 (ip), vehicle: saline with Tween-80) 3 of 6; under setting [4], 0 of 3; under setting [5], 0 of 3; under setting [6], 0 of 3.

As to `COc1ccc2c(=O)c3ccccc3ncc2c1`, the survivor count is on record as 5 of 6 (dose: 100.0 mg/kg/injection, schedule: Q01DX009 (ip), vehicle: saline); 0 of 6 (dose: 200.0 mg/kg/injection, schedule: Q01DX009 (ip), vehicle: saline); 0 of 6 under setting [7].

Turning to `CC(O)Cn1cnc2c1c(=O)n(C)c(=O)n2C` (configuration not stated), the survivor count under setting [7] is 6 of 6.

`C[CH2][Sn]([I])([CH2]C)[CH2]C`: the survivor count is, setting by setting: (dose: 50.0 mg/kg/injection, schedule: Q04DX002 (ip), vehicle: gum acacia) 2 of 3; (dose: 100.0 mg/kg/injection, schedule: Q04DX002 (ip), vehicle: gum acacia) 1 of 3; under setting [4], 0 of 3; (dose: 200.0 mg/kg/injection, schedule: Q04DX002 (ip), vehicle: gum acacia) 1 of 3; under setting [5], 0 of 3; (dose: 400.0 mg/kg/injection, schedule: Q04DX002 (ip), vehicle: gum acacia) 0 of 3. In addition, under setting [6], the survivor count is reported as 0 of 3.

Take `c1ccc(-c2nc(-c3ccccn3)nc(-c3ccccn3)n2)nc1`: the survivor count was 3 of 6 (dose: 100.0 mg/kg/injection, schedule: Q01DX001 (ip), vehicle: saline); 0 of 6 (dose: 200.0 mg/kg/injection, schedule: Q01DX001 (ip), vehicle: saline); 0 of 6 under setting [1].

On to `CCNCCCCCCNCC`, for which the survivor count (dose: 100.0 mg/kg/injection, schedule: Q04DX003 (ip), vehicle: saline) was 5 of 6; the survivor count (dose: 200.0 mg/kg/injection, schedule: Q04DX003 (ip), vehicle: saline) was 0 of 6; the survivor count (dose: 400.0 mg/kg/injection, schedule: Q04DX003 (ip), vehicle: saline) was 0 of 6.

Regarding `O=[N+]([O-])c1ccc(/C=C/C=C/c2ccc(Cl)cc2Cl)cc1`, the survivor count (dose: 400.0 mg/kg/injection, schedule: Q01DX009 (ip), vehicle: saline with Tween-80) is reported as 5 of 6.

On to `NC(Cc1ccccc1)C(=O)CCl` (configuration not stated), for which the survivor count (dose: 100.0 mg/kg/injection, schedule: Q04DX002 (ip), vehicle: saline) was 1 of 3.
